Test results published in the supplement of paper PMC8728848.
Some of the results follow.

Experiments:
Experiment in all cases: glycan array binding signal (z-score within array); higher = stronger binding
Details in all cases: glycan notation: IUPAC condensed, linker removed
[1] = biological target: GalNAc(b1-3)Gal(a1-6)Gal(b1-4)Glc
Procedure, shortened: (§1)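 Arrays were curated from the Consortium for Functional Glycomics database, 3228 in total, and kept only where the protein sequence was available. Binding is expressed as a within-array Z-score. This score was averaged across arrays of the same protein sequence at different concentrations or buffers and across linkers, and negative values can be read as non-binding.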

GalNAc(b1-3)GalNAc = biological target: GalNAc(b1-3)GalNAc
Procedure, shortened: as §1

GalNAc(b1-3)GlcNAc = biological target: GalNAc(b1-3)GlcNAc
Procedure, shortened: as §1

GalNAc(b1-4)Gal(b1-4)Glc = biological target: GalNAc(b1-4)Gal(b1-4)Glc
Procedure, shortened: as §1

GalNAc(b1-4)GlcNAc = biological target: GalNAc(b1-4)GlcNAc
Procedure, shortened: as §1

[2] = biological target: GalNAc(b1-4)GlcNAc(b1-2)Man
Procedure, shortened: as §1

[3] = biological target: GalNAc(b1-4)GlcNAc(b1-2)Man(a1-3)[GalNAc(b1-4)GlcNAc(b1-2)Man(a1-6)]Man(b1-4)GlcNAc(b1-4)GlcNAc
Procedure, shortened: as §1

[4] = biological target: GalNAc(b1-4)GlcNAc(b1-3)GalNAc(b1-4)GlcNAc
Procedure, shortened: as §1

GalNAc(b1-4)GlcNAc6S = biological target: GalNAc(b1-4)GlcNAc6S
Procedure, shortened: as §1

GalNAc(b1-6)GalNAc = biological target: GalNAc(b1-6)GalNAc
Procedure, shortened: as §1

GalNAc3S(b1-4)GlcNAc = biological target: GalNAc3S(b1-4)GlcNAc
Procedure, shortened: as §1

GalNAc3S(b1-4)GlcNAc3S = biological target: GalNAc3S(b1-4)GlcNAc3S
Procedure, shortened: as §1

[5] = biological target: GalNAc3S(b1-4)[Fuc(a1-3)]GlcNAc
Procedure, shortened: as §1

GalNAc4S6S(b1-4)GlcNAc = biological target: GalNAc4S6S(b1-4)GlcNAc
Procedure, shortened: as §1

GalNAc6S(b1-4)GlcNAc = biological target: GalNAc6S(b1-4)GlcNAc
Procedure, shortened: as §1

Glc(a1-4)Glc = biological target: Glc(a1-4)Glc
Procedure, shortened: as §1

[6] = biological target: Glc(a1-4)Glc(a1-4)Glc(a1-4)Glc
Procedure, shortened: as §1

Glc(a1-6)Glc(a1-6)Glc = biological target: Glc(a1-6)Glc(a1-6)Glc
Procedure, shortened: as §1

[7] = biological target: Glc(a1-6)Glc(a1-6)Glc(a1-6)Glc
Procedure, shortened: as §1

Glc(b1-4)Glc = biological target: Glc(b1-4)Glc
Procedure, shortened: as §1

Glc(b1-6)Glc = biological target: Glc(b1-6)Glc
Procedure, shortened: as §1

GlcA(b1-3)Gal = biological target: GlcA(b1-3)Gal
Procedure, shortened: as §1

GlcA(b1-3)GlcNAc = biological target: GlcA(b1-3)GlcNAc
Procedure, shortened: as §1

GlcA(b1-6)Gal = biological target: GlcA(b1-6)Gal
Procedure, shortened: as §1

[8] = biological target: GlcA3S(b1-3)Gal(b1-4)GlcNAc(b1-2)Man
Procedure, shortened: as §1

[9] = biological target: GlcA3S(b1-3)Gal(b1-4)GlcNAc(b1-3)Gal(b1-4)Glc
Procedure, shortened: as §1

[10] = biological target: GlcNAc(a1-3)Gal(b1-4)GlcNAc
Procedure, shortened: as §1

[11] = biological target: GlcNAc(a1-4)Gal(b1-3)GlcNAc
Procedure, shortened: as §1

[12] = biological target: GlcNAc(a1-4)Gal(b1-4)GalNAc
Procedure, shortened: as §1

[13] = biological target: GlcNAc(a1-4)Gal(b1-4)GlcNAc
Procedure, shortened: as §1

[14] = biological target: GlcNAc(a1-4)Gal(b1-4)GlcNAc(b1-3)Gal(b1-4)Glc
Procedure, shortened: as §1

[15] = biological target: GlcNAc(a1-4)Gal(b1-4)GlcNAc(b1-3)Gal(b1-4)GlcNAc
Procedure, shortened: as §1

[16] = biological target: GlcNAc(a1-4)Gal(b1-4)GlcNAc(b1-3)Gal(b1-4)GlcNAc(b1-3)Gal(b1-4)GlcNAc
Procedure, shortened: as §1

[17] = biological target: GlcNAc(a1-4)Gal(b1-4)GlcNAc(b1-3)Gal(b1-4)[Fuc(a1-3)]GlcNAc(b1-3)Gal(b1-4)[Fuc(a1-3)]GlcNAc
Procedure, shortened: as §1

[18] = biological target: GlcNAc(a1-6)Gal(b1-4)GlcNAc
Procedure, shortened: as §1

[19] = biological target: GlcNAc(b1-2)Gal(b1-3)GalNAc
Procedure, shortened: as §1

[20] = biological target: GlcNAc(b1-2)Man(a1-3)[GlcNAc(b1-2)Man(a1-6)]Man(b1-4)GlcNAc(b1-4)GlcNAc
Procedure, shortened: as §1

[21] = biological target: GlcNAc(b1-2)Man(a1-3)[GlcNAc(b1-2)Man(a1-6)]Man(b1-4)GlcNAc(b1-4)[Fuc(a1-6)]GlcNAc
Procedure, shortened: as §1

[22] = biological target: GlcNAc(b1-2)Man(a1-3)[GlcNAc(b1-4)][GlcNAc(b1-2)Man(a1-6)]Man(b1-4)GlcNAc(b1-4)GlcNAc
Procedure, shortened: as §1

[23] = biological target: GlcNAc(b1-2)Man(a1-3)[GlcNAc(b1-4)][GlcNAc(b1-2)Man(a1-6)]Man(b1-4)GlcNAc(b1-4)[Fuc(a1-6)]GlcNAc
Procedure, shortened: as §1

[24] = biological target: GlcNAc(b1-2)[GlcNAc(b1-4)]Man(a1-3)[GlcNAc(b1-2)Man(a1-6)]Man(b1-4)GlcNAc(b1-4)GlcNAc
Procedure, shortened: as §1

[25] = biological target: GlcNAc(b1-2)[GlcNAc(b1-4)]Man(a1-3)[GlcNAc(b1-4)][GlcNAc(b1-2)Man(a1-6)]Man(b1-4)GlcNAc(b1-4)GlcNAc
Procedure, shortened: as §1

[26] = biological target: GlcNAc(b1-2)[GlcNAc(b1-4)]Man(a1-3)[GlcNAc(b1-4)][GlcNAc(b1-2)[GlcNAc(b1-6)]Man(a1-6)]Man(b1-4)GlcNAc(b1-4)GlcNAc
Procedure, shortened: as §1

[27] = biological target: GlcNAc(b1-2)[GlcNAc(b1-4)]Man(a1-3)[GlcNAc(b1-4)][GlcNAc(b1-2)[GlcNAc(b1-6)]Man(a1-6)]Man(b1-4)GlcNAc(b1-4)[Fuc(a1-6)]GlcNAc
Procedure, shortened: as §1

[28] = biological target: GlcNAc(b1-2)[GlcNAc(b1-6)]Man(a1-6)[GlcNAc(b1-2)Man(a1-3)]Man(b1-4)GlcNAc(b1-4)GlcNAc
Procedure, shortened: as §1

B1: GST Gap3 (Streptococcus parasanguinis) (protein)
chain: MTKQLISEIYWNEIRKGENYLYGSQIKFQEDLVNFYNPQLASGKPIVTFKSRTNYQGDRHSPDLPILIQGNRYLLEYQIDAVPANSFFLQLDFFNRQAEQIESIVLRNSGESFIFPKDTFTYTLTLMSAGCQSVTYQKFMIYDINDEEKKNHIVENRYLRELLPKDLDLVKNLIEYI
glycan array binding signal (z-score) [1]: 0.006
glycan array binding signal (z-score) (GalNAc(b1-3)GalNAc): -0.404
glycan array binding signal (z-score) (GalNAc(b1-3)GlcNAc): -0.581
glycan array binding signal (z-score) (GalNAc(b1-4)Gal(b1-4)Glc): -0.498
glycan array binding signal (z-score) (GalNAc(b1-4)GlcNAc): 0.123
glycan array binding signal (z-score) [2]: -0.553
glycan array binding signal (z-score) [3]: 0.051
glycan array binding signal (z-score) [4]: -0.032
glycan array binding signal (z-score) (GalNAc(b1-4)GlcNAc6S): 1.03
glycan array binding signal (z-score) (GalNAc(b1-6)GalNAc): -0.263
glycan array binding signal (z-score) (GalNAc3S(b1-4)GlcNAc): -0.688
glycan array binding signal (z-score) (GalNAc3S(b1-4)GlcNAc3S): -0.214
glycan array binding signal (z-score) [5]: 0.824
glycan array binding signal (z-score) (GalNAc4S6S(b1-4)GlcNAc): -0.267
glycan array binding signal (z-score) (GalNAc6S(b1-4)GlcNAc): 0.428
glycan array binding signal (z-score) (Glc(a1-4)Glc): 3.14
glycan array binding signal (z-score) [6]: -0.61
glycan array binding signal (z-score) (Glc(a1-6)Glc(a1-6)Glc): 0.005
glycan array binding signal (z-score) [7]: 0.214
glycan array binding signal (z-score) (Glc(b1-4)Glc): -0.381
glycan array binding signal (z-score) (Glc(b1-6)Glc): 0.135
glycan array binding signal (z-score) (GlcA(b1-3)Gal): -0.077
glycan array binding signal (z-score) (GlcA(b1-3)GlcNAc): 1.05
glycan array binding signal (z-score) (GlcA(b1-6)Gal): 0.658
glycan array binding signal (z-score) [8]: -0.249
glycan array binding signal (z-score) [9]: 1.95
glycan array binding signal (z-score) [10]: -0.406
glycan array binding signal (z-score) [11]: -0.334
glycan array binding signal (z-score) [12]: 0.129
glycan array binding signal (z-score) [13]: -0.311
glycan array binding signal (z-score) [14]: -0.26
glycan array binding signal (z-score) [15]: 0.075
glycan array binding signal (z-score) [16]: -0.302
glycan array binding signal (z-score) [17]: 2.24
glycan array binding signal (z-score) [18]: 0.544
glycan array binding signal (z-score) [19]: -0.224
glycan array binding signal (z-score) [20]: -0.297
glycan array binding signal (z-score) [21]: 0.521
glycan array binding signal (z-score) [22]: -0.45
glycan array binding signal (z-score) [23]: -0.495
glycan array binding signal (z-score) [24]: -0.411
glycan array binding signal (z-score) [25]: 0.326
glycan array binding signal (z-score) [26]: -0.484
glycan array binding signal (z-score) [27]: -0.513
glycan array binding signal (z-score) [28]: -0.202
